Laboratory results published in US20170234889A1, “hGH Determination for Use to Guide Prevention of a Major Adverse Cardiac Event or a Cardiovascular Disease in a Subject” (Sphingotec GmbH, priority 2014, published 2017).
At least one structure is not confirmed: it was looked up by name or label, or the drawing left a doubt.

Test system: subjects with plaque in the right carotid artery but no symptoms of carotid artery disease
Test: BCAPS: fasting plasma hs-GH under treatment
Format: in vivo, human
From the text: The β-Blocker Cholesterol-Lowering Asymptomatic Plaque Study (BCAPS) was a randomized, double blind, placebo-controlled, single-center clinical trial that took place between 1994 and 1999. A detailed description of BCAPS can be found in the original paper (Hedblad et al. 2001. Circulation 103: 1721-1726), following here is a brief summary. The original study population consisted of 361 men and 432 women (total n=793) 49 to 70 years of age recruited from MDC-CC. Subjects included in BCAPS had plaque in the right carotid artery but no symptoms of carotid artery disease. Exclusion criteria were: myocardial infarction, angina pectoris or stroke within the previous 3 months; previous surgery in the right carotid artery; regular use of β-blockers or statins; blood pressure >160 (systolic) or >95 (diastolic) mm Hg; total cholesterol >8.0 mmol/l; hyperglycemia suspected to require insulin treatment; and conditions that in the view of the investigator made the participant unsuitable for the trial. The study consisted of 4 different treatment groups and the participants were randomized to 1 of the following: placebo/placebo, metoprolol CR/XL (25 mg once daily)/placebo, fluvastatin (40 mg once daily)/placebo or metoprolol CR/XL (25 mg once daily)/fluvastatin (40 mg once daily). The treatment period was 36-months. Fasting blood samples were drawn at baseline and at 12, 24 and 36 months. HDL-C, total cholesterol and TG were measured according to standard procedures at the Department of Clinical Chemistry, University Hospital of Malmö. LDL-C levels were calculated according to the Friedewald formula. GH levels were measured in stored fasting plasma samples, which were frozen immediately to −80° C. at the different examinations. A number of the samples stored in the freezer were missing or had insufficient plasma for the analysis of hs-GH. Subjects in which either the baseline-value of GH or the 12-month value of GH was missing were excluded from further analysis. After this adjustment the study consisted of 472 individuals. All samples were measured using the hs-hGH immunoassay as described above. In the analyses where treatment groups are compared, the groups are either the 4 randomization groups or they are divided in to 2 groups which are fluvastatin vs non-fluvastatin (i.e placebo) or metoprolol vs non-metoprolol. Since fasting hs-GH is known to differ between men and women all models were performed separate for men and women as well as combined. All models were adjusted for age, sex (if not already gender separated) and the natural logarithm of the fasting level of hs-GH at baseline. […]

## CC(C)n1c(/C=C/C(O)CC(O)CC(=O)O)c(-c2ccc(F)cc2)c2ccccc21 (stereo not shown) [Fluvastatin]
females
  correlation of treatment with ΔGH compared to placebo: borderline significant
males
  change of hs-GH over 12 months compared to subjects without the treatment: greater reduction of hs-GH
  correlation of treatment with ΔGH compared to placebo: significant negative correlation
males, listed as fluvastatin/placebo
  change of hs-GH over 12 months compared to subjects without the treatment: not significantly different
